Test results reported in the supplement of paper PMC7238544.
Counter-ions that a name gives are not always drawn. ± gives the standard deviation of the averaged measurements. This is one part of the list. The data scatter; read single values as rough.

Key:
hAMSC donor 1 [1] = experiment: Hoechst total cell count ratio vs vehicle control; higher = more cells (less toxicity)
hAMSC donor 2 [2] = experiment: as above
hAMSC donor 1 [3] = experiment: transgenic luciferase activity (RLU/mg protein) fold change vs vehicle control (ratio); higher = more transgene expression
hAMSC donor 2 [4] = experiment: as above
hAMSC donor 1 [5] = experiment: transfection efficiency (EGFP+ cells / Hoechst count) fold change vs vehicle control (ratio); hAMSC are human adipose-derived mesenchymal stem cells given an EGFP-luciferase plasmid by lipofection; higher = enhanced transfection
hAMSC donor 2 [6] = experiment: as above
[7] = priming compound concentration 0.2 µM
[8] = priming compound concentration 1.7 µM
[9] = priming compound concentration 13 µM

Row | Compound | Hoechst total cell count ratio (hAMSC donor 1 [1]; [7]) | Hoechst total cell count ratio (hAMSC donor 1 [1]; [8]) | Hoechst total cell count ratio (hAMSC donor 1 [1]; [9]) | Hoechst total cell count ratio (hAMSC donor 2 [2]; [7]) | Hoechst total cell count ratio (hAMSC donor 2 [2]; [8]) | Hoechst total cell count ratio (hAMSC donor 2 [2]; [9]) | transgenic luciferase activity (hAMSC donor 1 [3]; [8]) | transgenic luciferase activity (hAMSC donor 1 [3]; [9]) | transgenic luciferase activity (hAMSC donor 2 [4]; [8]) | transgenic luciferase activity (hAMSC donor 2 [4]; [9]) | transfection efficiency (hAMSC donor 1 [5]; [7]) | transfection efficiency (hAMSC donor 1 [5]; [8]) | transfection efficiency (hAMSC donor 1 [5]; [9]) | transfection efficiency (hAMSC donor 2 [6]; [7]) | transfection efficiency (hAMSC donor 2 [6]; [8]) | transfection efficiency (hAMSC donor 2 [6]; [9]) | transgenic luciferase activity (hAMSC donor 2 [4]; [7]) | transgenic luciferase activity (hAMSC donor 1 [3]; [7])
1 | CC(=O)/N=c1/sc(S(N)(=O)=O)nn1C [Methazolamide] | 1.36 ± 0.21 | 0.942 ± 0.021 | 0.867 ± 0.054 | 0.921 ± 0.17 | 1.15 ± 0.046 | 1.42 ± 0.29 | 1.26 ± 0.93 | 0.87 ± 0.11 | 0.773 ± 0.028 | 0.548 ± 0.074 | 0.977 ± 0.082 | 1.48 ± 0.21 | 1.87 ± 0.17 | 0.935 ± 0.25 | 1.25 ± 0.072 | 1.13 ± 0.013 | – | –
2 | C[C@]12CC[C@@H]3c4ccc(OS(=O)(=O)O)cc4CC[C@H]3[C@@H]1CCC2=O [Estrone 3-sulfate sodium salt] | 1.02 ± 0.11 | 0.982 ± 0.1 | 0.744 ± 0.098 | 1.04 ± 0.3 | 1.21 ± 0.064 | 1.26 ± 0.094 | 0.714 ± 0.54 | – | 0.66 ± 0.11 | 0.203 ± 0.023 | 0.759 ± 0.1 | 1.22 ± 0.089 | 0.985 ± 0.36 | 1.35 ± 0.12 | 0.979 ± 0.1 | 1.07 ± 0.048 | 0.896 ± 0.19 | –
3 | O=C(O)COCCN1CCN(C(c2ccccc2)c2ccc(Cl)cc2)CC1 (centres undefined) [Cetirizine] | 1.27 ± 0.069 | 1.56 ± 0.12 | 1.49 ± 0.18 | 1.06 ± 0.12 | 1.22 ± 0.071 | 1.13 ± 0.12 | – | 0.913 ± 0.41 | 0.626 ± 0.03 | 0.577 ± 0.11 | 0.965 ± 0.098 | 1.08 ± 0.36 | 0.981 ± 0.18 | 0.888 ± 0.051 | 0.818 ± 0.09 | 0.791 ± 0.078 | 0.741 ± 0.071 | –
4 | CO[C@H]1/C=C/O[C@@]2(C)Oc3c(C)c(O)c4c(O)c(c(/C=N/N5CCN(C)CC5)c(O)c4c3C2=O)NC(=O)/C(C)=C\C=C\[C@H](C)[C@H](O)[C@@H](C)[C@@H](O)[C@@H](C)[C@H](OC(C)=O)[C@@H]1C [Rifampicin] | 1.16 ± 0.16 | 1.25 ± 0.16 | 1.6 ± 0.061 | 1.16 ± 0.058 | 0.776 ± 0.036 | 1.21 ± 0.15 | – | 5.46 ± 0.39 | 0.459 ± 0.081 | – | 1.2 ± 0.42 | 1.04 ± 0.18 | 0.822 ± 0.11 | 1.02 ± 0.13 | 1.55 ± 0.13 | 0.978 ± 0.064 | 0.775 ± 0.12 | 0.256 ± 0.17
5 | CC(=O)O[C@]1(C(C)=O)CC[C@H]2[C@@H]3C[C@H](C)C4=CC(=O)CC[C@]4(C)[C@H]3CC[C@@]21C [Medroxyprogesterone 17-acetate] | 0.95 ± 0.19 | 1.1 ± 0.18 | 1.07 ± 0.16 | 1.13 ± 0.4 | 1.57 ± 0.094 | 1.77 ± 0.078 | 1.05 ± 0.33 | 1.31 ± 0.17 | 1.27 ± 0.2 | 0.77 ± 0.17 | 1.73 ± 0.4 | 0.846 ± 0.23 | 1.99 ± 0.78 | 1.39 ± 0.23 | 1.65 ± 0.091 | 1.37 ± 0.21 | – | –
6 | C[C@H]1C[C@@H]2[C@H]([C@@H](O)C[C@@]3(C)[C@H]2CC[C@]3(O)C(=O)CO)[C@@]2(C)C=CC(=O)C=C12 [Methylprednisolone] | 1.57 ± 0.27 | 1.68 ± 0.034 | 1.24 ± 0.1 | 1.11 ± 0.34 | 1.32 ± 0.17 | 1.38 ± 0.15 | 3.89 ± 1.9 | 8.92 ± 0.29 | 2.43 ± 0.18 | 1.92 ± 0.33 | 1.75 ± 0.85 | 2.22 ± 0.15 | 2.46 ± 0.8 | 1.49 ± 0.34 | 1.84 ± 0.2 | 1.86 ± 0.21 | – | –
7 | CC1COc2c(N3CCN(C)CC3)c(F)cc3c(=O)c(C(=O)O)cn1c23 (centres undefined) [Ofloxacin] | 1.34 ± 0.077 | 1.79 ± 0.28 | 1.16 ± 0.1 | 1.13 ± 0.0089 | 1.14 ± 0.065 | 1.32 ± 0.19 | – | 1.1 ± 0.24 | 0.598 ± 0.066 | 0.755 ± 0.025 | 1.02 ± 0.2 | 0.871 ± 0.48 | 1.12 ± 0.38 | 0.961 ± 0.2 | 0.979 ± 0.1 | 0.872 ± 0.19 | 0.768 ± 0.16 | –
8 | CCCCC(=O)O[C@H]1CC[C@H]2[C@@H]3CCc4cc(O)ccc4[C@H]3CC[C@]12C [Estradiol valerate] | 1.2 ± 0.15 | 1.27 ± 0.23 | 1.13 ± 0.31 | 1.23 ± 0.035 | 0.808 ± 0.16 | 0.751 ± 0.058 | 0.565 ± 0.19 | – | 0.799 ± 0.081 | 0.615 ± 0.092 | 1.32 ± 0.48 | 1.22 ± 0.3 | 0.938 ± 0.082 | 0.899 ± 0.063 | 1.27 ± 0.038 | 1.48 ± 0.34 | – | 0.885 ± 0.51
9 | CC(C)(C#N)c1cc(Cn2cncn2)cc(C(C)(C)C#N)c1 [Anastrozole] | 1.46 ± 0.22 | 0.943 ± 0.16 | 1.07 ± 0.19 | 0.93 ± 0.2 | 1.51 ± 0.22 | 1.1 ± 0.29 | 0.876 ± 0.61 | 1.09 ± 0.23 | 0.802 ± 0.16 | 0.384 ± 0.044 | 0.913 ± 0.2 | 1.2 ± 0.38 | 1.05 ± 0.3 | 1.03 ± 0.17 | 1.05 ± 0.13 | 1.1 ± 0.1 | – | –
10 | CC(=O)CC(c1ccccc1)c1c(O)c2ccccc2oc1=O (centres undefined) [Warfarin sodium] | 1.26 ± 0.12 | 1.27 ± 0.085 | 1.43 ± 0.25 | 1.12 ± 0.12 | 0.706 ± 0.038 | 1.37 ± 0.15 | – | 9.67 ± 0.6 | 0.465 ± 0.051 | – | 1.38 ± 0.21 | 1.12 ± 0.028 | 1.26 ± 0.31 | 0.866 ± 0.072 | 1.58 ± 0.15 | 0.965 ± 0.063 | 0.742 ± 0.055 | 0.76 ± 0.059
11 | CCCCC(=O)O[C@]1(C(=O)CO)CC[C@H]2[C@@H]3CCC4=CC(=O)CC[C@]4(C)[C@H]3[C@@H](O)C[C@@]21C [Hydrocortisone 17-valerate] | 1.25 ± 0.091 | 1.44 ± 0.12 | 1.26 ± 0.23 | 1.14 ± 0.044 | 1.02 ± 0.12 | 1.01 ± 0.077 | 3.89 ± 0.72 | – | 1.96 ± 0.14 | 1.45 ± 0.26 | 1.54 ± 0.41 | 1.49 ± 0.24 | 1.22 ± 0.18 | 1.19 ± 0.074 | 2.38 ± 0.19 | 1.66 ± 0.24 | – | 1.62 ± 0.53
12 | CCOC(=O)c1ncn2c1CN(C)C(=O)c1cc(F)ccc1-2 [Flumazenil] | 1.46 ± 0.021 | 1.04 ± 0.11 | 1.09 ± 0.028 | 0.901 ± 0.18 | 0.846 ± 0.039 | 1.27 ± 0.27 | 2.69 ± 1.1 | – | 1.23 ± 0.4 | 0.837 ± 0.17 | 0.675 ± 0.12 | 1.49 ± 0.11 | 0.834 ± 0.19 | 1.18 ± 0.27 | 1.36 ± 0.23 | 1.38 ± 0.12 | 0.561 ± 0.037 | –
13 | CC(C)NCC(O)COc1cccc2[nH]ccc12 (centres undefined) [Pindolol] | 1.08 ± 0.11 | 1.45 ± 0.13 | 1.41 ± 0.27 | 1.09 ± 0.12 | 1.18 ± 0.14 | 0.999 ± 0.21 | – | 0.952 ± 0.6 | 0.826 ± 0.088 | 0.643 ± 0.18 | 1.24 ± 0.46 | 1.43 ± 0.085 | 0.965 ± 0.098 | 0.903 ± 0.073 | 1.09 ± 0.14 | 1 ± 0.14 | 0.742 ± 0.1 | –
14 | Brc1c(NC2=NCCN2)ccc2nccnc12 [Brimonidine] | 1.02 ± 0.24 | 1.2 ± 0.1 | 1.24 ± 0.2 | 1.22 ± 0.016 | 0.8 ± 0.11 | 0.839 ± 0.22 | 1.89 ± 0.73 | – | 0.657 ± 0.061 | 0.276 ± 0.13 | 1.3 ± 0.39 | 1.29 ± 0.32 | 1.15 ± 0.14 | 0.834 ± 0.012 | 1.38 ± 0.13 | 1.42 ± 0.16 | – | 0.892 ± 0.3

In another format: entries from further up
Row,Compound,Hoechst total cell count ratio (hAMSC donor 1 [1]; [7]),Hoechst total cell count ratio (hAMSC donor 1 [1]; [8]),Hoechst total cell count ratio (hAMSC donor 1 [1]; [9]),Hoechst total cell count ratio (hAMSC donor 2 [2]; [7]),Hoechst total cell count ratio (hAMSC donor 2 [2]; [8]),Hoechst total cell count ratio (hAMSC donor 2 [2]; [9]),transgenic luciferase activity (hAMSC donor 1 [3]; [8]),transgenic luciferase activity (hAMSC donor 1 [3]; [9]),transgenic luciferase activity (hAMSC donor 2 [4]; [8]),transgenic luciferase activity (hAMSC donor 2 [4]; [9]),transfection efficiency (hAMSC donor 1 [5]; [7]),transfection efficiency (hAMSC donor 1 [5]; [8]),transfection efficiency (hAMSC donor 1 [5]; [9]),transfection efficiency (hAMSC donor 2 [6]; [7]),transfection efficiency (hAMSC donor 2 [6]; [8]),transfection efficiency (hAMSC donor 2 [6]; [9]),transgenic luciferase activity (hAMSC donor 2 [4]; [7]),transgenic luciferase activity (hAMSC donor 1 [3]; [7])
12,CCOC(=O)c1ncn2c1CN(C)C(=O)c1cc(F)ccc1-2 [Flumazenil],1.46 ± 0.021,1.04 ± 0.11,1.09 ± 0.028,0.901 ± 0.18,0.846 ± 0.039,1.27 ± 0.27,2.69 ± 1.1,–,1.23 ± 0.4,0.837 ± 0.17,0.675 ± 0.12,1.49 ± 0.11,0.834 ± 0.19,1.18 ± 0.27,1.36 ± 0.23,1.38 ± 0.12,0.561 ± 0.037,–
13,CC(C)NCC(O)COc1cccc2[nH]ccc12 (centres undefined) [Pindolol],1.08 ± 0.11,1.45 ± 0.13,1.41 ± 0.27,1.09 ± 0.12,1.18 ± 0.14,0.999 ± 0.21,–,0.952 ± 0.6,0.826 ± 0.088,0.643 ± 0.18,1.24 ± 0.46,1.43 ± 0.085,0.965 ± 0.098,0.903 ± 0.073,1.09 ± 0.14,1 ± 0.14,0.742 ± 0.1,–
